Results from publication PMC12019842.

Protein sequences, listed by entry. Tags and fused reporters are not part of them.
UniProt O54833: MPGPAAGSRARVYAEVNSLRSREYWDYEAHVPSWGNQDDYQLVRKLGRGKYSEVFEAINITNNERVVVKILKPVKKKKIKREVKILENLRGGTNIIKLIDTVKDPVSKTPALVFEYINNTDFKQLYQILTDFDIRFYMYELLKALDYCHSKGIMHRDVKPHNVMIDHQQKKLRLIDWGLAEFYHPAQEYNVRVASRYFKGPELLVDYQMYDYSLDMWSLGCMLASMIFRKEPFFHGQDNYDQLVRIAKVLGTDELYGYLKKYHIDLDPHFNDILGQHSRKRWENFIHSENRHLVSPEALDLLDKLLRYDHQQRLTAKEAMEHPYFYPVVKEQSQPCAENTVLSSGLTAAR
UniProt P50752: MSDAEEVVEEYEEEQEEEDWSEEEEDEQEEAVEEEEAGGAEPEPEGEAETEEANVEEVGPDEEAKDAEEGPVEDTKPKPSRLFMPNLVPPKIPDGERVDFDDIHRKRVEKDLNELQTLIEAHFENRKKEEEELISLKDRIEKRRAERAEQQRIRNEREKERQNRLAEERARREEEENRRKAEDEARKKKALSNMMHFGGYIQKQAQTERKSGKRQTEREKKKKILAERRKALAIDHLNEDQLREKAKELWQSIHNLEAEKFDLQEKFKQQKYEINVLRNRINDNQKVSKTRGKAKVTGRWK

Legend:
[1] = target: casein kinase II subunit alpha (Csnk2a2) (mouse (endogenous in mouse heart)) (UniProt O54833); experiment: affinity purification with mass spectrometry; Co-IP from frozen mouse heart homogenate (three mice) with anti-Troponin T-C (CT3) or anti-CSNK2A2 antibody, IgG as negative control; lysis buffer 10 mM Hepes, 10 mM potassium chloride, 0.1% Triton X-100, pH 7.4; antibody-antigen incubation 18 h at 4 °C; elute against unbound fraction and IgG elute by DIA-MS (FDR <0.05, log2FC > 1)
[2] = target: cardiac troponin T (Tnnt2) (mouse (endogenous in mouse heart)) (UniProt P50752); experiment: as above

B1: H1-1 (protein, UniProt P43275 1-213)
chain: MSETAPVAQAASTATEKPAAAKKTKKPAKAAAPRKKPAGPSVSELIVQAVSSSKERSGVSLAALKKSLAAAGYDVEKNNSRIKLGLKSLVNKGTLVQTKGTGAAGSFKLNKKAESKAITTKVSVKAKASGAAKKPKKTAGAAAKKTVKTPKKPKKPAVSKKTSKSPKKPKVVKAKKVAKSPAKAKAVKPKASKAKVTKPKTPAKPKKAAPKKK
binding [1]: binds

B2: Lmnb2 (protein, UniProt P21619 1-596)
chain: MASLPPHAGPATPLSPTRLSRLQEKEELRELNDRLAHYIDRVRALELENDRLLLRISEKEEVTTREVSGIKTLYESELADARRVLDETARERARLQIEIGKVQAELEEARKSAKKREGELTVAQGRVKDLESLFHRSEAELATALSDKQGLETEVAELRAQLAKAEDGHAVAKKQLEKETLMRVDLENRCQSLQEELAFSKSVFEEEVRETRRRHERRLVEVDSSRQQEYDFKMAQALEDLRSQHDEQVRLYRVELEQTYQAKLDNAKLLSDQNDKAAHAAREELKEARMRVESLSYQLLGLQKQASAAENHIHELEEALAGERDKFRKMLDAKEQEMTEVRDAMQQQLAEYQELLDIKLALDMEISAYRKLLEGEEERLKLSPSPSSRITISRATSSSSSSSGVGMSVGQGRGKRRRLETEDTSGSPSRASRVSSGSRLAQQTVATGVVNIDEVDPEGRFVRLKNSSDKDQSLGNWRIKRQVLEGEDIAYKFTPKYVLRAGQTVTVWAAGAGATHSPPSTLVWKSQTNWGPGESFRTALVSADGEEVAVKAAKHSSVQGRENGEEEEEEEAEFGEEDLFHQQGDPRTTSRGCRLM
binding [1]: binds

B3: Synpo2 (protein, UniProt Q91YE8 1-1087)
chain: MGTGDFICISMTGGAPWGFRLQGGKEEQQPLQVAKIRSQSKASGSGLREGDEVVSINGNPCADLTYPEVIKLMEGITDSLHLLVKRPSSGTSETLDSESETTNHQHLTHEGPMESTTLQIQQATETQSEDFFLAPVQTKVPLTEDQSNAWGYAECPKEEQAPPMLGSQEGHLVEEVILRQKAEAGQPGHVVELQLSLSKERHQCTSGPIVTLQGNDKSTSPDPDWSSQLERTVHINSIPAPEKADTSLTSSTSSGRELRVIQGRDPGGAGLPQVEVILDCSDRLKAEECRLQTGRGCVASPVEGGRSEAPPSLVSFAVSSEGTEHGEDQRSGKDQSRPHKHRARHARLRRSESLSEKQVKEAKSKCKSIALLLTDAPNPNSKGVLMFKKRRRRARKYTLVSYGTGELEREEEEEEDQEAGDKDEISEVAFLGTSESEVDEELLSDVDDNTQVVNFDWDSGLVDIEKRLNRGDKMEMLPDTTGKGALMFAKRRERMEQFTAQNEEEKTGGMAGGGPDALQTDGLRTMTSYQRKEESVRMQSSVSESSFQMGRSLASVPQQNGFSGVSETAGAQRMFPMNRTAKPFLGSMNQPAAPFSPTRSVTSPISDFPAPPPYSAVSPPPEAFSRGVSSPVAGPAQPPPWPQPAPWSQPAFYDSSEQIASRDERIAVPAKRTGILQEAKRRGTTKPMFTFKETKVSPNPELLSLLQNAEGKRGTGGDSGPEEDYLSLGAEACNFMQSSAKQKTPPPVAPKPAVKSPSSSQPVAPVSPVWSPGVAPAQRPAFSTSNPPNPPQVTAVSSIKIAQPAAPPARPASALNLAGPFKGPQAVVVSHNYTPKPSAPTPLVNAAPAGAGGPSNELPGMSGKGAQLFAKRQSRMEKYVVDSDTVQAHTVRAQSPTPSLPASWKYSSNVRAPPPVAYNPIHSPSYPLAAIKSQPPGAQASKTSKKKGKKPLNTLDVMKHQPYQLNASLFTFQPPDSKDGLPQKSTVKVSSAPAMKQALPPRQANVGSPTNAQASSVYSVPAYTSQPNFFAAEATSPVSASPVPVSVPTSPKQESTSTSYFVAPRPKFSAKKSGVTVQVWKPSVVEE
binding [1]: binds

B4: Myom2 (protein, UniProt Q14BI5 1-1463)
chain: MSLVAVPFYQKRHKHFDQSYRNIQTRYLLDQYALKKQATTQSSSQRSLTERSSSKRASSQSSAGAMTCRLCAKRVSASEEEEVENENRYRSQAASYGEAKRQRFLSELAQLEENVHLARSQARDKLDKYFMEQTVEDNLAWERHSFEDRMSRAPEILVRLRSHTIWERMSVRLCFTVQGFPTPVVQWYKDGSLICQAGEPGKYRIESRYGVHTLEINRANFEDTATYSAVATNSHGQVSTNAAVVVRRYRGEEEPFHSVGLPIGLPLSSVIPYTHFDVQFLEKFGVTFRREGETVTLKCTLLVTPDLKRVQPRAEWYRDDVLLKESKWTKMFFGEGQASLSFSHLNKDDEGLYTLRIVSRGGVSDHSAFMFVRDADPLVTGAPGAPMDLQCHDANRDYVIVTWKPPNTTTESPVIGYFIDKCEVGTNNWVQCNDAPVKICKYPVTGLFEGRSYVFRVRAVNNAGISRPSRISDAVAALDPVDLRRLQAIHLEGEKEIVIYQDDLEGDVQIPGPPTNVQASEVSRNYVVLSWDPPSPRGKDPLMYFIEKSAVGSGSWQRVNAQTAVRSPRYAVFDLAEGKSYVFRVLSANKHGLSDPSEITPPIQAQDMIVVPSAPGRVLASRNTKTSVVVQWDRPKHEEDLLGYYVDCCVAGTNMWEPCNHKPIGYNRFVVHGLTTGEQYIFRVKAVNAVGTSENSQESEVIKVQAALTVPSHPYGITLLNCDGHSMTLGWKVPKFSGGSAIIGYYLDKREVHHKNWHEVNSSPVKERILTVEGLTEGSLYEFKIAATNLAGIGQPSDPSEHFKCEAWTDPEPGPAYDLTFCEVRDTSLVILWKAPVYSGSSPVSGYFVDFKEEDSGEWKTTSEAATPNRYLKVCDLQQGKTYVFRIRAVNASGPGKPSDTSEPVLVEARPGTKEISAGVDEEGNIYLGFDCQEMTDASQFTWCKAYEEIADEERFEVHTEGDHSKLYFKNPDKEDLGTYSVSVSDTDGVSSSFVLDEEELERLMALSNEIKNPTIPLKSELAYEIFDKGQVRFWLQAEHLSPDASFRFIINDREVSDSDTHRIKCDRSTGMIEMVMDRFTIENEGTYTVQIQDGKAKNQSSLVLIGDAFKAVLEEAEFQRKEFLRKQGPHFAEYLHWDVTEECEVRLVCKVANTKRETVFKWLKDDVLYETETPPDLEKGVCELLIPKLSKKDHGEYKATLKDDRGQDVSVLEVGGKVYEDMILAMSRVCGASASPLKVLCTPEGIRLQCFMKYFTEEMKVSWYHKEAKISSSEHMRIGGSEEMAWLQICEPTEKDKGKYTFEIFDGKDSHQRSLDLSGQAFDEAYAEFQQLKAAAFAEKNRGKVIGGLPDVVTIMEGKTLNLTCTVFGNPDPEVVWFKNDKDIELSEHFLVKMEQSKYVSLTIQGVTAEDSGKYSINVKNKYGGEKIDVTVSVYKHGEKIPDISPPQQAKPKLIPASTSSD
binding [2]: binds

B5: Ablim2 (protein, UniProt Q8BL65 1-612)
chain: MSAVSQPQAAHAPLEKPASTAILCNTCGNVCKGEVLRVQNKYFHIRCFVCKACGCDLAEGGFFVRQGEHICTRDYQRLYGTRCFSCDRFIEGEVVSALGKTYHPDCFVCAVCRLPFPPGDRVTFNGKECMCQKCSPPTLLGNSAHVAQGLRSCGGCGLEIKNGQALVALDKHWHLGCFKCKTCGKLLNAEYISKDGLPYCEADYHSKFGIRCDGCEKYITGRVLEAGEKHYHPSCALCVRCGQMFSEGEEMYLQGSSIWHPACRQAARTEDKSKETRTSSESIVSVPASSTSGSPSRVIYAKLGDEILDYRDLAALPKNKAIYNIDRPDMISYSPYISHSAVGDRQSYGEGDQDDRSYKQCRTSSPSSAGSVSLGHYTPTSRSPQHYSRPGSESGRSTPSLSVHSDSRPPSSTYQQAPRHFHVPDTGVKDNIYRKPPIYKQHAARRLDVEDSSFDQDSRKKTTWLLLKGDADTRTNSPDLDSQSLSLSSGTDQEPLQRMAGDSLYSRFPYSKPDTLPGPRKDGLDLRNANLAPCGADPDASWGTREYKIYPYDSLIVTNRIRVKLPKDVDRTRLERHLSPEEFQEVFGMSIEEFDRLALWKRNDLKKKALLF
binding [1]: binds

These are yes or no findings as the source states them, for the method shown. In cells and extracts the contact can be indirect. A yes stands for co-enrichment or nearness to the bait. Other partners may have been found.
